{"source": "PubChem BioAssay AID743121 (NCATS, 2013)", "aim": "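Genes whose silencing strengthens cell killing by camptothecin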 (primary screen)", "cells": "MDA-MB-231 cells, a human breast cancer line", "reagent": "single siRNA against human genes, 20 nM siRNA (0.8 pmol per well)", "timing": "120 h (drug added 48 h after transfection, read 72 h later)", "treatment": "camptothecin 20 nM (about EC30) for 72 h; vehicle 0.1% DMSO in parallel plates", "read-out": "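Cell viability by ATP luminescence (CellTiter-Glo) as % of non-targeting siRNA wells, and the log2 ratio of viability without drug over viability with camptothecin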", "reading the numbers": "log2 vehicle/camptothecin viability: higher = stronger sensitisation to camptothecin; viability with camptothecin: higher = more viable cells", "rule for the call": "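Active genes have an RSA gene-level p-value below 0.001, computed from the ratios of their separate siRNAs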", "note": "The whole screen tested about 26,000 reagents; shown is a random part of them. Over the whole deposit, 167 (0.63%) got an active call. 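Calls are per gene from RSA p-values that are not deposited; an individual active-marked siRNA can sensitise only weakly.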 A number with no mark means an inactive call. Further read-outs or replicates are left out here."}
{"target gene":"BIRC3 (baculoviral IAP repeat containing 3)","PubChem SID":"SID164353647","log2 vehicle/camptothecin viability":0.313,"viability with camptothecin (% of control)":85.7}
{"target gene":"BIRC3 (baculoviral IAP repeat containing 3)","PubChem SID":"SID164353648","log2 vehicle/camptothecin viability":0.402,"viability with camptothecin (% of control)":70.6}
{"target gene":"BIRC3 (baculoviral IAP repeat containing 3)","PubChem SID":"SID164353649","log2 vehicle/camptothecin viability":-0.0374,"viability with camptothecin (% of control)":95.1}
{"target gene":"KCNH4 (potassium voltage-gated channel subfamily H member 4)","PubChem SID":"SID164447897","log2 vehicle/camptothecin viability":-0.336,"viability with camptothecin (% of control)":113}
{"target gene":"KCNH4 (potassium voltage-gated channel subfamily H member 4)","PubChem SID":"SID164447900","log2 vehicle/camptothecin viability":-0.394,"viability with camptothecin (% of control)":48.4}
{"target gene":"KCNH4 (potassium voltage-gated channel subfamily H member 4)","PubChem SID":"SID164447902","log2 vehicle/camptothecin viability":-0.194,"viability with camptothecin (% of control)":46.3}
{"target gene":"KCNH4 (potassium voltage-gated channel subfamily H member 4)","PubChem SID":"SID164447903","log2 vehicle/camptothecin viability":-0.624,"viability with camptothecin (% of control)":50.9}
{"target gene":"TRAK2 (trafficking kinesin protein 2)","PubChem SID":"SID164506135","log2 vehicle/camptothecin viability":0.00144,"viability with camptothecin (% of control)":94.7}
{"target gene":"TRAK2 (trafficking kinesin protein 2)","PubChem SID":"SID164506136","log2 vehicle/camptothecin viability":-0.0883,"viability with camptothecin (% of control)":62.1}
{"target gene":"TRAK2 (trafficking kinesin protein 2)","PubChem SID":"SID164506137","log2 vehicle/camptothecin viability":-0.194,"viability with camptothecin (% of control)":98.7}
{"target gene":"TRAK2 (trafficking kinesin protein 2)","PubChem SID":"SID164506138","log2 vehicle/camptothecin viability":0.0224,"viability with camptothecin (% of control)":93.3}

Reprinted from the listing (3 entries):
{"target gene":"BIRC3 (baculoviral IAP repeat containing 3)","PubChem SID":"SID164353648","log2 vehicle/camptothecin viability":0.402,"viability with camptothecin (% of control)":70.6}
{"target gene":"BIRC3 (baculoviral IAP repeat containing 3)","PubChem SID":"SID164353649","log2 vehicle/camptothecin viability":-0.0374,"viability with camptothecin (% of control)":95.1}
{"target gene":"KCNH4 (potassium voltage-gated channel subfamily H member 4)","PubChem SID":"SID164447897","log2 vehicle/camptothecin viability":-0.336,"viability with camptothecin (% of control)":113}

Further reagents follow.
{"target gene":"TRIM51 (tripartite motif-containing 51)","PubChem SID":"SID164546609","log2 vehicle/camptothecin viability":-0.615,"viability with camptothecin (% of control)":96}
{"target gene":"TRIM51 (tripartite motif-containing 51)","PubChem SID":"SID174315949","log2 vehicle/camptothecin viability":-0.0216,"viability with camptothecin (% of control)":62.7}
{"target gene":"TRIM51 (tripartite motif-containing 51)","PubChem SID":"SID174315954","log2 vehicle/camptothecin viability":-0.00318,"viability with camptothecin (% of control)":64.5}
{"target gene":"TRIM51 (tripartite motif-containing 51)","PubChem SID":"SID174315979","log2 vehicle/camptothecin viability":-0.587,"viability with camptothecin (% of control)":60.1}
{"target gene":"XIAP (X-linked inhibitor of apoptosis)","PubChem SID":"SID164353662","log2 vehicle/camptothecin viability":0.00682,"viability with camptothecin (% of control)":114}
{"target gene":"XIAP (X-linked inhibitor of apoptosis)","PubChem SID":"SID164353663","log2 vehicle/camptothecin viability":0.132,"viability with camptothecin (% of control)":107}
{"target gene":"XIAP (X-linked inhibitor of apoptosis)","PubChem SID":"SID164353664","log2 vehicle/camptothecin viability":-0.0167,"viability with camptothecin (% of control)":121}
{"target gene":"XIAP (X-linked inhibitor of apoptosis)","PubChem SID":"SID164353665","log2 vehicle/camptothecin viability":-0.22,"viability with camptothecin (% of control)":41.3}
{"target gene":"NCK2 (NCK adaptor protein 2)","PubChem SID":"SID164397613","log2 vehicle/camptothecin viability":-0.023,"viability with camptothecin (% of control)":93}
{"target gene":"NCK2 (NCK adaptor protein 2)","PubChem SID":"SID164397614","log2 vehicle/camptothecin viability":0.111,"viability with camptothecin (% of control)":53.5}
{"target gene":"NCK2 (NCK adaptor protein 2)","PubChem SID":"SID164397615","log2 vehicle/camptothecin viability":-0.181,"viability with camptothecin (% of control)":59.4}
{"target gene":"NCK2 (NCK adaptor protein 2)","PubChem SID":"SID164397616","log2 vehicle/camptothecin viability":-0.323,"viability with camptothecin (% of control)":65.2}
{"target gene":"TIPIN (TIMELESS interacting protein)","PubChem SID":"SID164481802","log2 vehicle/camptothecin viability":-0.863,"viability with camptothecin (% of control)":84.7}
{"target gene":"TIPIN (TIMELESS interacting protein)","PubChem SID":"SID164481806","log2 vehicle/camptothecin viability":-0.394,"viability with camptothecin (% of control)":41}
{"target gene":"TIPIN (TIMELESS interacting protein)","PubChem SID":"SID164481807","log2 vehicle/camptothecin viability":0.0688,"viability with camptothecin (% of control)":30.2}
{"target gene":"TIPIN (TIMELESS interacting protein)","PubChem SID":"SID164481808","log2 vehicle/camptothecin viability":-0.344,"viability with camptothecin (% of control)":27}
{"target gene":"MMP12 (matrix metallopeptidase 12)","PubChem SID":"SID164375836","log2 vehicle/camptothecin viability":0.2,"viability with camptothecin (% of control)":104}
{"target gene":"MMP12 (matrix metallopeptidase 12)","PubChem SID":"SID164375837","log2 vehicle/camptothecin viability":0.00609,"viability with camptothecin (% of control)":84.7}
{"target gene":"MMP12 (matrix metallopeptidase 12)","PubChem SID":"SID164375840","log2 vehicle/camptothecin viability":0.0553,"viability with camptothecin (% of control)":106}
{"target gene":"MMP12 (matrix metallopeptidase 12)","PubChem SID":"SID164375841","log2 vehicle/camptothecin viability":0.322,"viability with camptothecin (% of control)":73.1}
{"target gene":"GPR155 (G protein-coupled receptor 155)","PubChem SID":"SID164576444","log2 vehicle/camptothecin viability":-0.466,"viability with camptothecin (% of control)":83}
{"target gene":"GPR155 (G protein-coupled receptor 155)","PubChem SID":"SID164576445","log2 vehicle/camptothecin viability":-0.165,"viability with camptothecin (% of control)":99.1}
{"target gene":"GPR155 (G protein-coupled receptor 155)","PubChem SID":"SID164576447","log2 vehicle/camptothecin viability":0.298,"viability with camptothecin (% of control)":57.7}
{"target gene":"GPR155 (G protein-coupled receptor 155)","PubChem SID":"SID164576448","log2 vehicle/camptothecin viability":-0.0751,"viability with camptothecin (% of control)":81}
